Results are given in words; binding and its absence hold for the method and conditions named. For part of these data: In cells and extracts the contact can be indirect. Some results given as binding are weak or reduced against the parent protein; the word gives no strength.
Assays:
[1] = molecular target: HDAC2 (mouse (endogenous in mouse brain)) (UniProt P70288); assay: co-IP; mouse brain nuclear extract in RIPA buffer; antibodies (anti-HDAC1, anti-HDAC2, anti-p66 Beta, CHD5 antiserum) crosslinked to protein A beads; immunoblot for CHD5, HDAC1 or HDAC2
[2] = molecular target: p66ß (mouse (endogenous in mouse brain)) (UniProt Q8VHR5); assay: as above
[3] = molecular target: MBD3 (mouse (endogenous in mouse brain)) (UniProt Q9Z2D8); assay: co-IP; mouse brain nuclear extract diluted into CoIP Buffer II (100 mM NaCl, 20 mM Hepes pH 7.5, 1 mM EDTA, 10% glycerol, 0.1% NP40); antibodies not crosslinked to the protein A beads; immunoblot for CHD5
[4] = molecular target: MTA3 (mouse (endogenous in mouse brain)) (UniProt Q924K8); assay: as above
[5] = molecular target: RbAp46 (mouse (endogenous in mouse brain)) (UniProt Q60973); assay: as above
[6] = molecular target: CHD5 (mouse (endogenous in mouse brain)) (UniProt A2A8L1); assay: SEC; mouse brain nuclear extract dialyzed against PBS, 0.2 mg loaded onto a Sephadex 200 column; fractions analysed by western blot
[7] = molecular target: HDAC1 (human (endogenous in HeLa)) (UniProt Q13547); assay: co-IP; extracts of HeLa cells transfected with human CHD5 cDNA; immunoprecipitated and immunoblotted with the indicated antisera
[8] = molecular target: HDAC2 (human (endogenous in HeLa)) (UniProt Q92769); assay: as above
[9] = molecular target: CHD5 (mouse (endogenous in mouse brain)) (UniProt A2A8L1); assay: co-IP; mouse brain nuclear extract in RIPA buffer; antibodies (anti-HDAC1, anti-HDAC2, anti-p66 Beta, CHD5 antiserum) crosslinked to protein A beads; immunoblot for CHD5, HDAC1 or HDAC2

Chains of the proteins cited; added tags and fusions are not shown.
UniProt P70288: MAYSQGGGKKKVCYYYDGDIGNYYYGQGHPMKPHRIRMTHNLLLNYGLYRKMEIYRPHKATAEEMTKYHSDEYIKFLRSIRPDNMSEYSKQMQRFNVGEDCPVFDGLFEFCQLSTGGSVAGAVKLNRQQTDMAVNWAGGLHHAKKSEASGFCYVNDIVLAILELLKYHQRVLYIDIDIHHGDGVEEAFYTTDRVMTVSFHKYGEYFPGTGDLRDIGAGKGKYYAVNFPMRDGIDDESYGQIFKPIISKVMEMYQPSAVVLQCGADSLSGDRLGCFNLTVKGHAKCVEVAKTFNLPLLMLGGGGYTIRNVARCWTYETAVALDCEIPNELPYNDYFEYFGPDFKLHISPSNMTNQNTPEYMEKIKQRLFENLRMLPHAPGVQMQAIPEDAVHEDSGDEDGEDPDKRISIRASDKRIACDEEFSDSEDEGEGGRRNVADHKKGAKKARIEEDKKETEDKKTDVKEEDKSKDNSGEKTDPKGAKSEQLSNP
UniProt Q8VHR5: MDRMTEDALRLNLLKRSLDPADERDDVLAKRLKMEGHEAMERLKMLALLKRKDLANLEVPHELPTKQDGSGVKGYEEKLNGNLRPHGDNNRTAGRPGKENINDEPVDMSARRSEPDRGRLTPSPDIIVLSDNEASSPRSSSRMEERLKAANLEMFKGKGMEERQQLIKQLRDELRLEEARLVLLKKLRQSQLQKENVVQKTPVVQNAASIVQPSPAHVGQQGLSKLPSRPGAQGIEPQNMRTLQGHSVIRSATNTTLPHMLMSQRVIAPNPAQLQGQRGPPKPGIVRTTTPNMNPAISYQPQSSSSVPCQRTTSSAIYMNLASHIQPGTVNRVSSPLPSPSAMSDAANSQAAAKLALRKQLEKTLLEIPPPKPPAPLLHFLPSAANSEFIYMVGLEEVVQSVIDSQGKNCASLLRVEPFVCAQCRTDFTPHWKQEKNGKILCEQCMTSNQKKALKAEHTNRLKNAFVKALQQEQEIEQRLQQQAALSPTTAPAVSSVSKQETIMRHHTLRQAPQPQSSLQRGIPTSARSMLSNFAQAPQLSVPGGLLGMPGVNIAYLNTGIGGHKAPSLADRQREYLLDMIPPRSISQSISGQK
UniProt Q924K8: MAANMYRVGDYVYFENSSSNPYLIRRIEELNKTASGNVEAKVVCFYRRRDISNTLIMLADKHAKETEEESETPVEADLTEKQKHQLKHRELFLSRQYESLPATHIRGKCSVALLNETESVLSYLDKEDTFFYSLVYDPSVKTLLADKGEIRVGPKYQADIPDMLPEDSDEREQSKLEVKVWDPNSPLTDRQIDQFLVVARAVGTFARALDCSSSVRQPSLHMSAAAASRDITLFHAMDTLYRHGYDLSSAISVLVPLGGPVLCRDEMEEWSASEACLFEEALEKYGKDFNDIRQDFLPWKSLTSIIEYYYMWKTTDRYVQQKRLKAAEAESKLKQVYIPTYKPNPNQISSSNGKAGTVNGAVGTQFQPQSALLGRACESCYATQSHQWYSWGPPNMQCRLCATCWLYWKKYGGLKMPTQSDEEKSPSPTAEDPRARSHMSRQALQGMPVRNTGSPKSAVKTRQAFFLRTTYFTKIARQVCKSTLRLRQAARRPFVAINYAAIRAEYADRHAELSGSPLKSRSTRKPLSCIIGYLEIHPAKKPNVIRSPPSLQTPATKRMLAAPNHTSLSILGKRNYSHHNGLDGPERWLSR
UniProt A2A8L1: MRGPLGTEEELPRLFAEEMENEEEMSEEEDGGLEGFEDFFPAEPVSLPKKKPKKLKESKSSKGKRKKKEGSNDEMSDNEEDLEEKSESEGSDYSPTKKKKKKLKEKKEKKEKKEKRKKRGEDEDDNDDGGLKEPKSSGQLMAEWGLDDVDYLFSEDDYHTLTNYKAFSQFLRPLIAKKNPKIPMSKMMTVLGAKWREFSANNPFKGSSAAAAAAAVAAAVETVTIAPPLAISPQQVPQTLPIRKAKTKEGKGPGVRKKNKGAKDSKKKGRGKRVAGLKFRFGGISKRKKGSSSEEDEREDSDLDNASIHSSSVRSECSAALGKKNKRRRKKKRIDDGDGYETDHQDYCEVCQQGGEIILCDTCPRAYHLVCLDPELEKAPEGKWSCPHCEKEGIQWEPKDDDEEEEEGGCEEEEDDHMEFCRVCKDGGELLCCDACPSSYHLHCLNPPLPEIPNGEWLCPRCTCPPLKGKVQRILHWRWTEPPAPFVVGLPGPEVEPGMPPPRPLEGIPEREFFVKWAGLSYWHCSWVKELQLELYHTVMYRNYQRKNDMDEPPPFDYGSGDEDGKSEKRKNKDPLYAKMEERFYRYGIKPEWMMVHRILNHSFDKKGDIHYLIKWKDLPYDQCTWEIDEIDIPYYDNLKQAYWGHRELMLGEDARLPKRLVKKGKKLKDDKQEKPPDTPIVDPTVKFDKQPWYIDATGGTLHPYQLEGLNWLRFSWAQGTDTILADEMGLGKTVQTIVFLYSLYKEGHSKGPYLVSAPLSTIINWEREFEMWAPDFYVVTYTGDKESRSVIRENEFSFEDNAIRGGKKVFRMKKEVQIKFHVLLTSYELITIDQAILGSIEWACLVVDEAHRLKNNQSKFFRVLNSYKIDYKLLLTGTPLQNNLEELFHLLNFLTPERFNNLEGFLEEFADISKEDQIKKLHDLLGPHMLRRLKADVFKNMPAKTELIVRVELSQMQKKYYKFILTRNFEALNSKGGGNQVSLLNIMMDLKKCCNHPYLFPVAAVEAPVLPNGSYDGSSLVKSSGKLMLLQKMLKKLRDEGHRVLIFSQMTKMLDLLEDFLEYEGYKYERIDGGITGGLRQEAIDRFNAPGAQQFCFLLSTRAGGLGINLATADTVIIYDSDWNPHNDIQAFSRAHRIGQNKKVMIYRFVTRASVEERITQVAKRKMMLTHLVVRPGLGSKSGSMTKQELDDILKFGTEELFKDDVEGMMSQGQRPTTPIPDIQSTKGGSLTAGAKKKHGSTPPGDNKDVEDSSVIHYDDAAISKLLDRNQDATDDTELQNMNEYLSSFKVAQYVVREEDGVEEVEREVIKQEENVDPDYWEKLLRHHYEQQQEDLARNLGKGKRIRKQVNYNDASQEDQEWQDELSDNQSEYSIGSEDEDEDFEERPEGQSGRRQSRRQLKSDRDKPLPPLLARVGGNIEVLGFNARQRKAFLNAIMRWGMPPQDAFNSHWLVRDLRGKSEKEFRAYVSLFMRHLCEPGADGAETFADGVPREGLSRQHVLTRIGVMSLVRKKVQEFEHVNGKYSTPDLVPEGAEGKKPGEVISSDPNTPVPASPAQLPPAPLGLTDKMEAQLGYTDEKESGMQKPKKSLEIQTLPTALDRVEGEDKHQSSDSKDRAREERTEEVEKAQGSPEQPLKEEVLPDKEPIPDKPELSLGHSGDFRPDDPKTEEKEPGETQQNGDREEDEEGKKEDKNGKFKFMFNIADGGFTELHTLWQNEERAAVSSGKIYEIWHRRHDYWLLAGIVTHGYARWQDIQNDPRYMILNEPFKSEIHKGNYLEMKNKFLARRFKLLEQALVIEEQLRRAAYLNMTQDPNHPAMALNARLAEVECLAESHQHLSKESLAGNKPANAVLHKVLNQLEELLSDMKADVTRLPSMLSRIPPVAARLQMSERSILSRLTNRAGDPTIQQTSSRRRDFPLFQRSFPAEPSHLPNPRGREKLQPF
UniProt Q13547: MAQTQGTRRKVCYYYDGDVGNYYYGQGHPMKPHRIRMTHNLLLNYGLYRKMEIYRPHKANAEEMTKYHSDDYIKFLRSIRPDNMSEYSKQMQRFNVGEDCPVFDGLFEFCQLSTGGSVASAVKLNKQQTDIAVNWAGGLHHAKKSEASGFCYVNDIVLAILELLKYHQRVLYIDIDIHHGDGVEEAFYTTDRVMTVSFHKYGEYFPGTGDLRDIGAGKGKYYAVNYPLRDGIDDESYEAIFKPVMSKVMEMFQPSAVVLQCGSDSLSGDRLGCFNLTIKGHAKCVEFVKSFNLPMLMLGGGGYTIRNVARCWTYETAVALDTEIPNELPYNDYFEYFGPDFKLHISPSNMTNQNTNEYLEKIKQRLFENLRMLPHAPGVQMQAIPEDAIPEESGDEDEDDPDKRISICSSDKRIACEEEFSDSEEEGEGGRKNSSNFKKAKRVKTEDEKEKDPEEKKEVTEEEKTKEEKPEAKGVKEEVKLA
UniProt Q92769: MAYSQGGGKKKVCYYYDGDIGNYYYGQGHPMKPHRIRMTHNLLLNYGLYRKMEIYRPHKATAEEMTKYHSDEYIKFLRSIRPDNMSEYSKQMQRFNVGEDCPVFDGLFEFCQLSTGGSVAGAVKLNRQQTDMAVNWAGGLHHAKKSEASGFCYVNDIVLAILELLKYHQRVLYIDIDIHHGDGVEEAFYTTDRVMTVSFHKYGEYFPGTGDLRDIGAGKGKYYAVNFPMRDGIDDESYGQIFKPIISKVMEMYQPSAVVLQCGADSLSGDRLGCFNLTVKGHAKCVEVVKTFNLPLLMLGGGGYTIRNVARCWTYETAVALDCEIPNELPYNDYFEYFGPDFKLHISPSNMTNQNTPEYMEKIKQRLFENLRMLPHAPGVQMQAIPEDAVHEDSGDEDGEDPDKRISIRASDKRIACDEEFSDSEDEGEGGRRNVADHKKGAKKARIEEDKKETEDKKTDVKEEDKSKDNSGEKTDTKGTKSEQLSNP
UniProt Q8TDI0: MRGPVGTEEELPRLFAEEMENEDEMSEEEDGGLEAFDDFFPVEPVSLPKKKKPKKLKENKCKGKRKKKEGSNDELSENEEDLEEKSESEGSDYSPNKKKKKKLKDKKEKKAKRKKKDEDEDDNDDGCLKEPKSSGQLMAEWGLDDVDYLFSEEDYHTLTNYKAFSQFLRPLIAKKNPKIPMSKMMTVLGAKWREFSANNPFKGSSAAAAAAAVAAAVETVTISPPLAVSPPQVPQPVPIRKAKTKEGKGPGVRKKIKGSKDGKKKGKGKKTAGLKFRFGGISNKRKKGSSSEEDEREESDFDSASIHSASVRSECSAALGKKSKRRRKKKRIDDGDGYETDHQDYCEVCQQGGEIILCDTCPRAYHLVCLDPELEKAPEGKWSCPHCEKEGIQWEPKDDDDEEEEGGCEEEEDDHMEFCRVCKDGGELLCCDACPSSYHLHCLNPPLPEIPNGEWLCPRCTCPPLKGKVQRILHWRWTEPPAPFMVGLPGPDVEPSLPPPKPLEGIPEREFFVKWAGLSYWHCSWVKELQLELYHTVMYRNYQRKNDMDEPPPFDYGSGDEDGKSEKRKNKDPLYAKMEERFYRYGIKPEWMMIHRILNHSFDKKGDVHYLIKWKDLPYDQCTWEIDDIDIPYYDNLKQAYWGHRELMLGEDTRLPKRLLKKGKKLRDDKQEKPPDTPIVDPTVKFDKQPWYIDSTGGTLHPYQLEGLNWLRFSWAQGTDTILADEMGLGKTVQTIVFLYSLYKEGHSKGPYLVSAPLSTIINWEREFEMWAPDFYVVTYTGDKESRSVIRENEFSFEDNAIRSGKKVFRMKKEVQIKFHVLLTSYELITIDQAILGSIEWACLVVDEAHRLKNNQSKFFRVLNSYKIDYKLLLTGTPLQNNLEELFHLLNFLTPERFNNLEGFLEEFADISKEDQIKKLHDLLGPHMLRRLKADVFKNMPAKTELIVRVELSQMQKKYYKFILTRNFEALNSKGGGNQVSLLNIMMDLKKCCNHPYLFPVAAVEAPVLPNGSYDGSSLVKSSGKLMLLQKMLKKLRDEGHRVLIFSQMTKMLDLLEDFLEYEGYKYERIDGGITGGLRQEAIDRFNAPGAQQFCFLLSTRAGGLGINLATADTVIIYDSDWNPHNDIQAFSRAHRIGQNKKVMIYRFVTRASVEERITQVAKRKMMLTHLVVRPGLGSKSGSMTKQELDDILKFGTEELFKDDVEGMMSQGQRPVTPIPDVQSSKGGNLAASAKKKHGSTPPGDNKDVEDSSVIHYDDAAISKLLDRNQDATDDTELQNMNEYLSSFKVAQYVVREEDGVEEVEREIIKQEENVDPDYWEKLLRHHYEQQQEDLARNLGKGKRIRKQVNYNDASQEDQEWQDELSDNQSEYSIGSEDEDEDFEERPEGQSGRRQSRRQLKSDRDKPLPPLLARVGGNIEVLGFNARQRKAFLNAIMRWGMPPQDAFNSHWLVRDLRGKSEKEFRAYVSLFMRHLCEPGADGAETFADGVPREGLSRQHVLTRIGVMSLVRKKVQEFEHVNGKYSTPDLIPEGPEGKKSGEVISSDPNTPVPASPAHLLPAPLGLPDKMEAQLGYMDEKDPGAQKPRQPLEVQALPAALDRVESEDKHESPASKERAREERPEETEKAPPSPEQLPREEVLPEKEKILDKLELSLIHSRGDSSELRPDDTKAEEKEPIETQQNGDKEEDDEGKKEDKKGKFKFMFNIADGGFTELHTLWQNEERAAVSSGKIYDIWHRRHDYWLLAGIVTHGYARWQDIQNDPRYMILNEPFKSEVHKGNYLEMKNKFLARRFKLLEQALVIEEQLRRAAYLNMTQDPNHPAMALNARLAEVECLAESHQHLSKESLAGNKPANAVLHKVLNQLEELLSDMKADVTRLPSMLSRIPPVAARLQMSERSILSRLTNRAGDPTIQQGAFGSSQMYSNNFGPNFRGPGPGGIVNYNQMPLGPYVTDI

binding [2]	binding [6]	binding [7]	Substance	further results
binds	–	–	CHD5 (from UniProt A2A8L1 1-1946)	binding [1]: binds; binding [3]: binds weakly; binding [4]: binds; binding [5]: binds
–	binds	–	p66ß (from UniProt Q8VHR5 1-594)	–
–	–	binds	human CHD5 (from UniProt Q8TDI0 1-1954)	binding [8]: binds
–	–	binds	CHD4 (from UniProt Q14839 1-1912)	–
binds	binds	–	HDAC2 (from UniProt P70288 1-488)	binding [9]: binds
